From the supplement of paper PMC4683952
The list shows a part of the results. The rule behind the calls is not given here. Repeats in this data set agree poorly, so a single value says little.

Tested on: Lgr5 (MarsCy1-Lgr5-EGFP, U2OS)
Experiment: cell-surface Lgr5 expression (SCi1 fluorescence, background-subtracted) relative to WT DMSO (fold of DMSO control); higher = more Lgr5 at the plasma membrane
Settings: U2OS MarsCy1-Lgr5-EGFP stable; treatment time: overnight; library: Kinase Gold; 20 µM
Protocol: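 U2OS cells stably expressing MarsCy1-Lgr5-EGFP in 384-well plates were incubated overnight with single-dose compounds. Cell-surface Lgr5 was stained with SCi1 and scanned at 700 nm on a LI-COR Odyssey. Intensity was background-subtracted (parental U2OS) and expressed relative to WT DMSO wells.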

Structure (SMILES)	cell-surface Lgr5 expression
O=C(NNC(=O)c1cccnc1)Nc1ccccc1	inactive: 0.894
N#Cc1ccc(C(=O)NNC(=O)c2ccncc2)cc1	inactive: 0.875
Cc1ccc(-c2nc3ccccc3o2)cc1NC(=O)CCCl	inactive: 0.741
O=C(Cc1ccc(Cl)cc1)NNC(=S)NC(=O)c1cccnc1	inactive: 0.659
O=C(O)/C=C\C(=O)Nc1ccc2cn[nH]c2c1	inactive: 0.967
NC(=O)c1ccc[n+](CCC[n+]2cccc(C(N)=O)c2)c1	inactive: 0.786
O=C(Nc1ccc(Cl)cc1Cl)c1cc2ccccc2oc1=O	inactive: 0.899
Nc1ccc(NC(=O)c2ccccn2)cc1	inactive: 0.729
CCC1(C)COC(C)(CC(=O)NNC(=O)Nc2ccccc2)OC1 (stereo not given)	inactive: 0.666
O=C(NNC(=O)c1ccncc1)Nc1ccccc1	inactive: 0.777
CN(C)c1ccc2c3c(cccc13)C(=O)N(c1ccc(O)cc1)C2=O	inactive: 0.789
Cc1nc(C(=O)NN)cc2c1[nH]c1ccccc12	inactive: 0.547
CCCn1c(=O)c(C(=O)NNC(C)=O)c(O)c2ccccc21	inactive: 0.663
O=C(NCCc1ccc(F)cc1)C(=O)NCc1ccco1	inactive: 0.772
O=C(NCc1ccccn1)/C(=C/c1ccco1)NC(=O)c1ccccc1	inactive: 0.935
O=C(NC(=S)NNC(=O)c1ccccc1O)c1cccnc1	inactive: 0.724
Cc1ccc(S(=O)(=O)/N=C(\N)Nc2nc3ccccc3o2)cc1	inactive: 1.13
Nc1nc(NC(=S)Nc2ccccc2)cc(=O)[nH]1	inactive: 0.72
CC(=O)c1ccc(NC(=S)NC(=O)/C=C/c2ccco2)cc1	inactive: 0.714
CC(=O)Nc1ccc(C(=O)NNC(=O)c2cccs2)cc1	inactive: 0.87

Some of the entries so far, in CSV form:
Structure (SMILES),cell-surface Lgr5 expression
Cc1ccc(-c2nc3ccccc3o2)cc1NC(=O)CCCl,inactive: 0.741
O=C(Cc1ccc(Cl)cc1)NNC(=S)NC(=O)c1cccnc1,inactive: 0.659

Continued:

Structure (SMILES)	cell-surface Lgr5 expression
CC(=O)N/C(=C\c1ccccc1)C(=O)NCC1CCCO1 (stereo not given)	inactive: 0.868
NNc1nc(NCc2ccccc2)nc(N2CCOCC2)n1	inactive: 0.583
Nc1c(C(=O)N2CCOCC2)ccc2c1C(=O)c1ccccc1C2=O	inactive: 0.927
O=C(Nc1nc2ccccc2o1)Nc1ccccc1Cl	inactive: 0.595
O=C(/C=C/c1ccccc1)c1ccc2c(c1)OCCCO2	active: 1.49
COc1ccc2oc(=O)c(C(=O)Nc3ccccc3C)cc2c1	inactive: 0.879
Cn1c(=O)c(C(=O)Nc2ccc(F)cc2)c(O)c2ccccc21	inactive: 0.948
O=C(Nc1ccc2ncccc2c1)c1ccccc1Br	inactive: 0.818
O=C(Nc1ccc(F)cc1)c1nc[nH]c1C(=O)O	inactive: 0.726
COc1ccc(C(=O)/C=C/c2c[nH]c3ccccc23)cc1	inactive: 0.557
N#Cc1c(-c2ccc3c(c2)OCO3)cc(-c2ccccc2)nc1N	inactive: 0.99
NNC(=O)CSc1ncnc2nc[nH]c12	inactive: 1.2
Cc1ccccc1NC(=O)c1ccc([N+](=O)[O-])o1	inactive: 0.316
NC(=S)NNC(=O)CCn1c2ccccc2c2ccccc21	inactive: 0.496
O=C(Nc1ccc2nc3[nH]c(=O)[nH]c(=O)c3nc2c1)c1ccccc1	inactive: 0.662
NNC(=O)c1c(NC(=O)c2ccccc2)sc2c1CCCCC2	inactive: 0.321
COc1ccc(NC(=O)C(=O)NNC(=O)c2cccs2)cc1	inactive: 0.818
O=C(Nc1nc2ccccc2s1)c1c(O)c2ccccc2[nH]c1=O	inactive: 0.907
CC(NC(=O)C(=O)NCC1CCNCC1)c1ccccc1 (stereo not given)	inactive: 0.94
O=C(NC(=S)NCc1ccccc1)c1cccnc1	inactive: 0.858
